{"source": "paper PMC8509203", "about": "“Members of the GADD45 Protein Family Show Distinct Propensities to form Toxic Amyloid-Like Aggregates in Physiological Conditions” (International Journal of Molecular Sciences, 2021)", "key": {"[1]": {"molecular_target": "T1, GADD45α (growth arrest and DNA damage-inducible 45 alpha) (human), P24522", "T1 chain": "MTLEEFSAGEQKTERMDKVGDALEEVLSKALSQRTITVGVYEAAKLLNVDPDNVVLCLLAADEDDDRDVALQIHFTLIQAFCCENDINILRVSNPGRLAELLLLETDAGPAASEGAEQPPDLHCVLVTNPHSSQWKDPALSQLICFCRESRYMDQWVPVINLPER", "experiment": "SEC-MALS; SEC-LS, Superdex S200 10/30 with miniDAWN TREOS; 0.5-1.0 mg loaded; 20 mM Tris-HCl pH 7.5, 100 mM NaCl, 5 mM DTT, 5% glycerol (the results and the legend name only 5 mM DTT in 20 mM Tris-HCl pH 7.5); oligomeric state of the native protein; both purified", "details": "remark: other sources report otherwise"}, "[2]": {"molecular_target": "T2, GADD45β (growth arrest and DNA damage-inducible 45 beta) (human), O75293", "T2 chain": "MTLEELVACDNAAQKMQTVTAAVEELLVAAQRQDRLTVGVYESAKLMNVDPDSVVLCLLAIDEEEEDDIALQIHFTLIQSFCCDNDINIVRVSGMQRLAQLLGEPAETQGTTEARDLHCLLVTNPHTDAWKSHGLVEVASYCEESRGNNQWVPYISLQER", "experiment": "SEC-MALS; SEC-LS, Superdex S200 10/30 with miniDAWN TREOS; 0.5-1.0 mg loaded; 20 mM Tris-HCl pH 7.5, 100 mM NaCl, 5 mM DTT, 5% glycerol (the results and the legend name only 5 mM DTT in 20 mM Tris-HCl pH 7.5); oligomeric state of the native protein; both purified", "details": "remark: other sources report otherwise"}}, "note": "No constants are given. Whether binding was seen depends on the method and setting."}
{"binder": "GADD45α (growth arrest and DNA damage-inducible 45 alpha), P24522 1-165 (protein, here or on the partner: biotin (EZ-Link Sulfo-NHS-LC-Biotinylation Kit), in the BLI experiment only; biotin (EZ-Link Sulfo-NHS-LC-Biotinylation Kit), in the BLI experiment only) MTLEEFSAGEQKTERMDKVGDALEEVLSKALSQRTITVGVYEAAKLLNVDPDNVVLCLLAADEDDDRDVALQIHFTLIQAFCCENDINILRVSNPGRLAELLLLETDAGPAASEGAEQPPDLHCVLVTNPHSSQWKDPALSQLICFCRESRYMDQWVPVINLPER", "values": [{"measurement": "binding", "setting": "[1]", "result": "no binding (tested: 0.5–1.0 mg loaded on the column)"}]}
{"binder": "GADD45β (growth arrest and DNA damage-inducible 45 beta), O75293 1-160 (protein, here or on the partner: biotin (EZ-Link Sulfo-NHS-LC-Biotinylation Kit), in the BLI experiment only; biotin (EZ-Link Sulfo-NHS-LC-Biotinylation Kit), in the BLI experiment only) MTLEELVACDNAAQKMQTVTAAVEELLVAAQRQDRLTVGVYESAKLMNVDPDSVVLCLLAIDEEEEDDIALQIHFTLIQSFCCDNDINIVRVSGMQRLAQLLGEPAETQGTTEARDLHCLLVTNPHTDAWKSHGLVEVASYCEESRGNNQWVPYISLQER", "values": [{"measurement": "binding", "setting": "[2]", "result": "no binding (tested: 0.5–1.0 mg loaded on the column)"}]}
